# About 6,000 (1.7%) of roughly 350,000 compounds were called active. The shares of active, inactive and inconclusive entries below differ from those in the screen. Cut-off read from the data, not from the text of the source: active = CPE inhibition above about 20% (passing the limit was not always enough); inconclusive = no clear call, values can overlap the other calls; tested in BHK-21 cells.
# Experiment: protection of cells from dengue 2 killing – plate reader, single concentration, primary screen (AID 651640);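 note: 0% = median of neutral control wells and 100% = median of positive control wells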
# Settings: DENV2-infected cells, cytopathic effect rescue, at 9.99 µM, active compounds read high
row,Compound,CPE inhibition
1,C[C@@H]1CN([C@@H](C)CO)C(=O)c2cc(C3=CCCCC3)cnc2O[C@@H]1CN(C)Cc1cccnc1,active: 20.2%
2,NC(=O)C1(N2CCCCC2)CCN(C(=O)CCCn2c(=O)[nH]c3ccsc3c2=O)CC1,inconclusive: 35.4%
3,C/C=C/c1ccc2c(c1)O[C@H](CN(C)C(=O)Cc1ccccc1)[C@@H](C)CN([C@H](C)CO)S2(=O)=O,inconclusive: 29.8%
4,C[C@H](CO)N1C[C@H](C)[C@@H](CN(C)C(=O)Nc2cccc3ccccc23)Oc2ccc(N(C)C)cc2C1=O,active: 34.3%
5,Cc1ccc(CN2CCc3[nH]c(=S)[nH]c(=O)c3C2)cc1,inconclusive: 26.8%
6,CCCNC(=O)C[C@@H]1CC[C@@H]2[C@@H](COc3ccc(NC(=O)c4ccccc4)cc3C(=O)N2C)O1,inactive: -3.93%
7,COc1ccc(-c2sc3ccccc3c2-c2cc(OC)ccc2C=O)cc1,inconclusive: 53.4%
8,O=C(c1cc(C2CCCCN2C(=O)CCCc2ccccc2)on1)N1CCOCC1 (stereo not given),inconclusive: 25.1%
9,CCOc1ccc(CCNC(=O)c2cccc(S(=O)(=O)N3CCCCC3)c2)cc1OCC,inconclusive: 30.6%
10,COc1ccc(OC)c(CNc2ccc(F)c(Cl)c2)c1,inconclusive: 21.1%
11,COc1ccccc1C(=O)Nc1c2c(nn1-c1ccc(Cl)cc1)CS(=O)(=O)C2,inactive: 5.67%
12,CCOC(=O)[C@]12CCC=C1N(Cc1ccccc1)C(=O)[C@H](CC(=O)NCCCN1CCCC1=O)C2,inconclusive: 21.3%
13,CCNC(=O)[C@@H]1[C@@H](CO)[C@@H]2Cn3c(ccc(-c4ccc(F)cc4)c3=O)[C@H]1N2C(=O)c1ccccn1,inconclusive: 21.3%
14,O=C(Oc1ccc([N+](=O)[O-])cc1)c1cccnc1,inconclusive: 21.2%
15,COc1ccc(/C=N/N2CCN(c3ccccc3)CC2)cc1Br,inactive: 4.42%
16,C[C@@H]1CCCCO[C@@H](CN(C)Cc2ccc(C(F)(F)F)cc2)[C@H](C)CN([C@@H](C)CO)C(=O)c2cc(NS(C)(=O)=O)ccc2O1,inconclusive: 59.4%
17,O=c1c(O)c(-c2cccs2)oc2ccc(Cl)cc12,inactive: -2.52%
18,CCC(=O)N1CC2(CN(C(=O)Cc3ccccc3)C2)c2c(n(C)c3cc(OC)ccc23)[C@@H]1CO,inconclusive: 94.9%
19,C[C@@H]1CCCCO[C@H](CN(C)C(=O)NC2CCCCC2)[C@@H](C)CN([C@@H](C)CO)C(=O)c2cc(NS(=O)(=O)c3cn(C)cn3)ccc2O1,inconclusive: 24.5%
20,N#C/C(=C\c1cccs1)C(=O)c1ccccc1,inconclusive: 21%
21,Cc1cccc(CC2(O)C(=O)Nc3ccccc32)n1 (stereo not given),inconclusive: 20.7%
22,C[C@@H]1CCCCO[C@@H](CN(C)C(=O)Nc2ccc(C(F)(F)F)cc2)[C@H](C)CN([C@H](C)CO)C(=O)c2cc(NC(=O)C3CCCCC3)ccc2O1,active: 22.5%
23,CCc1nc2ccc(C(=O)N3CCN(C(C)=O)CC3)cn2c1N(CCC(C)C)CCN(C)C,inconclusive: 54.6%
24,Cc1ccc(N2C(=O)C3C4C=CC(CNC(=S)Nc5ccc(Cl)cc5)(O4)C3C2=O)cc1 (stereo not given),inconclusive: 37.2%

# 2 neighbouring records out of the list so far:
row,Compound,CPE inhibition
4,C[C@H](CO)N1C[C@H](C)[C@@H](CN(C)C(=O)Nc2cccc3ccccc23)Oc2ccc(N(C)C)cc2C1=O,active: 34.3%
5,Cc1ccc(CN2CCc3[nH]c(=S)[nH]c(=O)c3C2)cc1,inconclusive: 26.8%

# Continued:

row,Compound,CPE inhibition
1,COc1ccc(S(=O)(=O)Nc2ccc3c(c2)CC(=O)N([C@H](C)CO)C[C@H](C)[C@@H](CN(C)S(C)(=O)=O)O3)cc1,inconclusive: 35.2%
2,C[C@@H]1CN([C@H](C)CO)C(=O)c2cccc(NC(=O)Nc3ccc(F)cc3)c2O[C@H]1CN(C)Cc1ccncc1,inconclusive: 23.6%
3,COCCNC(=O)C1CC(c2ccccc2[N+](=O)[O-])=NO1 (stereo not given),inconclusive: 54%
4,CCC(=O)N(C)C[C@@H]1Oc2ncc(-c3ccc(C#N)cc3)cc2C(=O)N([C@H](C)CO)C[C@H]1C,inactive: 11.5%
5,COc1ccc(NC(=O)CNC(=O)CC23CC4CC(CC(C4)C2)C3)c(OC)c1,inconclusive: 32.2%
6,Nc1ccn(CC(=O)NCc2ccc3c(c2)OCO3)c(=O)n1,inactive: -2.33%
7,O=C(c1ccc2c(c1)CCC2)N1CCN(Cc2c(F)cccc2Cl)CC1,inconclusive: 63.1%
8,CN(CC(=O)Nc1ccccc1Br)C(=O)c1ccc(-c2ccc(Cl)cc2)o1,inconclusive: 23.2%
9,C[C@@H]1CN([C@@H](C)CO)C(=O)c2cc(-c3ccncc3)cnc2O[C@@H]1CN(C)S(=O)(=O)c1ccccc1,inconclusive: 21.4%
10,O=C(N/C(=C\c1ccc(Br)cc1)C(=O)N1CCOCC1)c1ccco1,inconclusive: 33.6%
11,C[C@@H]1CN([C@@H](C)CO)C(=O)c2cc(NS(=O)(=O)c3ccc(F)cc3)ccc2O[C@H]1CN(C)CC1CC1,inconclusive: 63.3%
12,C[C@H](CO)N1C[C@H](C)[C@@H](CN(C)S(=O)(=O)c2ccc(F)cc2)OCCCC[C@H](C)Oc2ccc(NS(C)(=O)=O)cc2C1=O,active: 26.7%
13,C[C@@H]1CN([C@H](C)CO)C(=O)c2cccc(NC(=O)Nc3ccc(C(F)(F)F)cc3)c2O[C@@H]1CN(C)C(=O)Nc1ccc(C(F)(F)F)cc1,active: 50%
14,O=C(NNC(=O)c1ccccc1O)c1ccc(S(=O)(=O)Nc2ccccc2)cc1,inconclusive: 20.6%
15,COc1cc([C@H](Cc2ccccc2)NC(C)=O)oc(=O)c1,active: 23.5%
16,COCC(=O)N1CC2(C1)[C@@H](c1ccc(-c3ccccc3)cc1)[C@@H](CO)N2C(=O)COC,inactive: -3.08%
17,Cc1noc(C)c1NC(=O)Nc1ccc2c(c1)C(=O)N([C@@H](C)CO)C[C@@H](C)[C@@H](CN(C)CC1CCCCC1)OCCCC[C@@H](C)O2,inconclusive: 40.9%
18,C[C@@H]1CN([C@@H](C)CO)C(=O)c2cc(NS(=O)(=O)c3cccs3)ccc2O[C@@H](C)CCCCO[C@H]1CN(C)Cc1ccc2c(c1)OCO2,active: 36.6%
19,CCCCOCC1CN(CCCC)S(=O)(=O)c2c(Oc3ccc(C)cc3)cccc2O1 (stereo not given),inactive: 5.9%
20,O=C(C[C@@H]1CC[C@@H](NC(=O)CN2CCOCC2)[C@H](CO)O1)NCc1cccc(F)c1,inconclusive: 38.3%
21,C[C@H](CO)N1C[C@H](C)[C@H](CN(C)C(=O)NC2CCCCC2)Oc2ccc(NC(=O)Cc3ccccc3)cc2C1=O,active: 33.2%
22,CCCCNC(=O)C1CCN(Cc2ccc(OCc3ccccc3)c(OC)c2)CC1,inconclusive: 21%
23,O=C(OCC(=O)N1CCN(C(=O)c2ccco2)CC1)c1cc(S(=O)(=O)Nc2ccc(Cl)cc2)ccc1O,inactive: 1.11%
24,CSc1ccc(CN2CCC(n3nccc3NC(=O)CCCc3ccccc3)CC2)cc1,inconclusive: 23.5%

row,Compound,CPE inhibition
1,CC(C)(C)c1ccc(C(=O)Nc2cccc(S(=O)(=O)NC3=NCCC3)c2)cc1,inconclusive: 31.1%
2,COC(=O)N(C)C[C@H]1OCc2cnnn2CCCC(=O)N([C@H](C)CO)C[C@H]1C,inconclusive: 31.4%
3,Cc1noc(C)c1NC(=O)N(C)C[C@@H]1Oc2c(NC(=O)Nc3ccc(C(F)(F)F)cc3)cccc2C(=O)N([C@@H](C)CO)C[C@@H]1C,active: 31.5%
4,Clc1cccc(Cl)c1CSc1nnc(-c2ccncc2)s1,active: 70.1%
5,CCOC(=O)C1=C(C)C2C3C(=O)N(c4ccccc4C)C(=O)C3C1(C)C1C(=O)N(c3ccccc3C)C(=O)C21 (stereo not given),inconclusive: 33.7%
6,C=CCn1c(SCC(=O)NC2CCCCC2)nc2ccccc2c1=O,inactive: -1.31%
7,C[C@H](CO)N1C[C@H](C)[C@@H](CN(C)C(=O)C2CCC2)Oc2cc(C3=CCCC3)ccc2S1(=O)=O,active: 32.5%
8,C[C@H](CO)N1C[C@H](C)[C@@H](CN(C)C(=O)C2CCC2)Oc2ncc(C#CCc3ccccc3)cc2C1=O,active: 60.2%
9,Cc1cc2oc3c(c(=O)c2cc1C)C(c1ccc(F)cc1)N(CCCN1CCOCC1)C3=O (stereo not given),inconclusive: 54.6%
10,COc1ccc(OC)c(NC(=O)Nc2nnc(COCCO)s2)c1,inconclusive: 26.8%
11,Cc1noc(C)c1S(=O)(=O)N(C)C[C@H]1Oc2ccc(NC(=O)C3CCCCC3)cc2CC(=O)N([C@H](C)CO)C[C@@H]1C,inconclusive: 23.8%
12,Cc1noc(C)c1NC(=O)N(C)C[C@H]1OCCCC[C@H](C)Oc2ccc(NS(=O)(=O)c3c(C)noc3C)cc2C(=O)N([C@H](C)CO)C[C@@H]1C,active: 34.1%
13,C[C@H](NC(=O)c1ccccc1Cl)C(=O)OCc1cn2cc(Cl)ccc2n1,inconclusive: 29.7%
14,COc1ccc(-c2cn(CCC(=O)NCc3ccc(C)cc3)c(CCN)n2)cc1,inconclusive: 22.3%
15,CC(C)n1cc(CN2CCCC(CNS(=O)(=O)c3cccc4cccnc34)C2)cn1 (stereo not given),active: 22.5%
16,COc1ccc(NC(=O)Cc2c(C(=O)O)n(C)c3ccccc23)cc1OC,inactive: 7.35%
17,COc1cccc(C(=O)N2C[C@H]3[C@@H](c4ccccc42)[C@@H](CO)N3Cc2ccccc2F)c1,inconclusive: 35.7%
18,CC(C)(C)NC(=O)c1cccc(NC(=O)c2ccc3c(c2)C(=O)N(C(C)(C)C)C3=O)c1,active: 44%
19,CCn1cc[n+](C)c1P(c1ccccc1)c1ccccc1,inconclusive: 21.2%
20,CO[C@H]1CN(C)C(=O)c2ccc(NC(=O)c3cnccn3)cc2OC[C@H](C)NC[C@@H]1C,inactive: 2.19%
21,C[C@@H]1CN([C@H](C)CO)C(=O)Cc2cc(NS(=O)(=O)c3ccc(F)cc3)ccc2O[C@@H]1CN(C)S(C)(=O)=O,active: 30.8%
22,C[C@@H]1CCCCO[C@H](CN(C)Cc2ccc3c(c2)OCO3)[C@H](C)CN([C@H](C)CO)C(=O)c2cc(NS(=O)(=O)c3ccccc3)ccc2O1,inactive: -3.55%

# Part of the list above, bar-delimited:
row | Compound | CPE inhibition
10 | COc1ccc(OC)c(NC(=O)Nc2nnc(COCCO)s2)c1 | inconclusive: 26.8%
11 | Cc1noc(C)c1S(=O)(=O)N(C)C[C@H]1Oc2ccc(NC(=O)C3CCCCC3)cc2CC(=O)N([C@H](C)CO)C[C@@H]1C | inconclusive: 23.8%

# Source: PubChem BioAssay AID651640 (Broad Institute, 2012)
